According to US9562044B2, “2-acylaminothiazole derivative or salt thereof” (ASTELLAS PHARMA INC., priority 2013, dated 2017):
At least one compound was matched to its structure with a doubt left.

Molecular target: T1, human c-Mpl receptor (Homo sapiens, UniProt P40238)
T1 construct: expressed in transfected cells
T1 sequence (P40238 26-635): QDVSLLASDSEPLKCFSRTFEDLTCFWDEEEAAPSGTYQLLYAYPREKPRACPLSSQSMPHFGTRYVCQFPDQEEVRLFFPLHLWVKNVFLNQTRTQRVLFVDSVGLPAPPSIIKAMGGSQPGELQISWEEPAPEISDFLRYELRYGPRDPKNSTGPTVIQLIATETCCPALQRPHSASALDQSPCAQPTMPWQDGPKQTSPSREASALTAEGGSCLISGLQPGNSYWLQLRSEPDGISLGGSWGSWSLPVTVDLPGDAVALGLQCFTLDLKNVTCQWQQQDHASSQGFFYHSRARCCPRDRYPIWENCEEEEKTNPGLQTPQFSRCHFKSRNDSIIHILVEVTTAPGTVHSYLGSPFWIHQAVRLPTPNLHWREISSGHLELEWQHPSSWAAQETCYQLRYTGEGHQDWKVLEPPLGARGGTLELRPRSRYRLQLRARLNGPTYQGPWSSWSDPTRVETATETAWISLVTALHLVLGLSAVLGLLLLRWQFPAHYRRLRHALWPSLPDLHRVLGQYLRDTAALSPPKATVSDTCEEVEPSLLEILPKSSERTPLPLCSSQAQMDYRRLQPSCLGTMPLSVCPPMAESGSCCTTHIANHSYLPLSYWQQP
Test: Human c-Mpl-introduced Ba/F3 cell proliferative activity
Format: cell-based
Conditions: concentration showing 30% proliferation; 100% = positive control at 1 μM
Experimental: Evaluation of Human c-Mpl-Introduced Ba/F3 Cell Proliferative Activity
The human c-Mpl-introduced Ba/F3 cell proliferative activity was measured by the following method.
As a positive control, 1-(5-{[4-(4-chloro-2-thienyl)-5-{[(2R)-2-methylpyrrolidin-1-yl]methyl}-1,3-thiazol-2-yl]carbamoyl}-3-fluoropyridin-2-yl)piperidine-4-carboxylic acid hydrochloride, which is disclosed as Example 315 in Patent Document 1 and represented by the formula A1, was used. It is known that the compound has a good human c-Mpl-introduced Ba/F3 cell proliferative activity as disclosed in Table 1 of Patent Document 1.
a) Construction of Human c-Mpl Receptor Expression Vector […]
The cells obtained in b) above was cultured in an RPMI-1640 culture medium containing 0.5% WEHI conditioned media, 10% fetal bovine serum, and used. […] Thereafter, the absorbance (absorption wavelength of 450 nm) of each well was measured using Safire^2™ (TECAN) and used as the index of the number of cells. […]
The absorbance of the well without the test substance was set to 0%, and the absorbance in the case where the positive control was added at a final concentration of 1 μM was set to 100%. From the absorbance in the case where the test substance had been added, a cell proliferation rate (%) was calculated. […]

With `CC[C@@H]1CCCN1Cc1sc(NC(=O)c2cnc(N3CCC(C(=O)O)CC3)cn2)nc1-c1cc(Cl)cs1` [Example 196] the “Test Example 2 EC30” value was 380 nM.
In the case of `CCN(CCOC)Cc1sc(NC(=O)c2cnc(N3CCC(C(=O)O)CC3)cn2)nc1-c1cc(Cl)cs1` [Example 197], the “Test Example 2 EC30” value is reported as 1800 nM.
